Results from PubChem BioAssay AID256 (DTP/NCI, 2004).
The list is a part of this screen's results and no random one: it gathers some chemical classes. Not every dose and run of a compound is shown. T/C: endpoint of the treated group in % of that of the vehicle group. Where survival is the endpoint, this PubChem deposit counts one and a half times the control or more as active, and values a quarter to a half above the control carry no call in these data; other NCI protocols may use other cut-offs. Schedules are NCI's codes, taken here to give the interval after Q, in days (D) or hours (H), and the number of doses after X. Some entries show no survivor count and are marked so; the dose need not have been tolerated. Some doses were run more than once; the results are listed from low to high.

Tested on: CD2F1 mice, L1210 leukemia ip, survival T/C
Test: NCI In Vivo Anticancer Drug Screen. Data for tumor model L1210 Leukemia (intraperitoneal) in CD2F1 (CDF1) mice
Settings: higher T/C = longer survival
Procedure: The antitumor activity of compounds was measured in mice bearing transplantable tumors. Survival or tumor size were measured and the results are expressed as the measurement made in the treated group (T) divided by the measurement made in the vehicle treated control group (C). The tumor model used in this assay is L1210 Leukemia (intraperitoneal) in CD2F1 (CDF1) mice

[1] = T/C endpoint: mean survival time, dose: 0.5 mg/kg/injection, schedule: Q01DX009 (ip), vehicle: saline
[2] = T/C endpoint: mean survival time, dose: 1.0 mg/kg/injection, schedule: Q01DX009 (ip), vehicle: saline
[3] = T/C endpoint: mean survival time, dose: 2.0 mg/kg/injection, schedule: Q01DX009 (ip), vehicle: saline

Structure (SMILES): CC1=C[C@H]2O[C@@H]3[C@H](O)[C@@H](O)[C@](C)([C@@]2(CO)CC1)[C@@]31CO1
- T/C [1]: 106 [survivor count not shown], 110 [survivor count not shown], 115 [survivor count not shown], 120 % of control [survivor count not shown]
- T/C [2]: 112 [survivor count not shown] and 128 % of control [survivor count not shown]
- T/C [3]: 116 [survivor count not shown], 121 [survivor count not shown], 126 [survivor count not shown], 131 % of control [survivor count not shown]
- T/C (T/C endpoint: mean survival time, dose: 4.0 mg/kg/injection, schedule: Q01DX009 (ip), vehicle: saline): 126 [survivor count not shown], 127 [survivor count not shown], 128 % of control [survivor count not shown]
- T/C (T/C endpoint: mean survival time, dose: 8.0 mg/kg/injection, schedule: Q01DX009 (ip), vehicle: saline): 109 [survivor count not shown] and 120 % of control [survivor count not shown]
- T/C (T/C endpoint: mean survival time, dose: 16.0 mg/kg/injection, schedule: Q01DX009 (ip), vehicle: saline): 94 [survivor count not shown] and 101 % of control [survivor count not shown]

Structure (SMILES): CC1=C[C@H]2O[C@@H]3C[C@H]4OC(=O)/C=C\C=C\C(C(C)O)OCC[C@@H](C)[C@H](O)C(=O)OC[C@@]2(CC1)[C@]4(C)[C@]31CO1 (some centres undefined)
- T/C (T/C endpoint: median survival time, dose: 37.5 micrograms/kg/injection, schedule: Q01DX009 (ip), vehicle: saline with Tween-80): 106 % of control [survivor count not shown]
- T/C (T/C endpoint: median survival time, dose: 75.0 micrograms/kg/injection, schedule: Q01DX009 (ip), vehicle: saline with Tween-80): 102 % of control [survivor count not shown]
- T/C (T/C endpoint: median survival time, dose: 150.0 micrograms/kg/injection, schedule: Q01DX009 (ip), vehicle: saline with Tween-80): 100 % of control [survivor count not shown]
- T/C (T/C endpoint: median survival time, dose: 300.0 micrograms/kg/injection, schedule: Q01DX009 (ip), vehicle: saline with Tween-80): 108 % of control [survivor count not shown]

Structure (SMILES): C[C@H](O)[C@H]1/C=C/C=C\C(=O)O[C@@H]2C[C@H]3O[C@@H]4[C@@H]5O[C@]5(C)CCC4(COC(=O)[C@H]4O[C@]4(C)[C@@H](O)CO1)[C@]2(C)[C@]31CO1 (some centres undefined)
- T/C (T/C endpoint: mean survival time, dose: 625.0 micrograms/kg/injection, schedule: Q01DX009 (ip), vehicle: saline + alcohol): 138 % of control [survivor count not shown]
- T/C (T/C endpoint: mean survival time, dose: 1250.0 micrograms/kg/injection, schedule: Q01DX009 (ip), vehicle: saline + alcohol): 134 % of control [survivor count not shown]
- T/C (T/C endpoint: mean survival time, dose: 2500.0 micrograms/kg/injection, schedule: Q01DX009 (ip), vehicle: saline + alcohol): 149 % of control [survivor count not shown]
- T/C (T/C endpoint: mean survival time, dose: 5000.0 micrograms/kg/injection, schedule: Q01DX009 (ip), vehicle: saline + alcohol): 151 % of control [survivor count not shown]

Structure (SMILES): CC(=O)O[C@@H]1[C@@H](O)[C@H]2O[C@@H]3C=C(C)C(=O)[C@@H](O)[C@]3(CO)[C@]1(C)[C@]21CO1
- T/C (T/C endpoint: mean survival time, dose: 0.2 mg/kg/injection, schedule: Q01DX009 (ip), vehicle: saline): 102 % of control [survivor count not shown]
- T/C (T/C endpoint: mean survival time, dose: 0.4 mg/kg/injection, schedule: Q01DX009 (ip), vehicle: saline): 101 % of control [survivor count not shown]
- T/C (T/C endpoint: mean survival time, dose: 0.8 mg/kg/injection, schedule: Q01DX009 (ip), vehicle: saline): 104 % of control [survivor count not shown]
- T/C (T/C endpoint: mean survival time, dose: 1.6 mg/kg/injection, schedule: Q01DX009 (ip), vehicle: saline): 119 % of control [survivor count not shown]

Structure (SMILES): CC1=CC2OC3CC4OC(=O)/C=C/C=C/C(C(C)O)OCC/C(C)=C/C(=O)OCC2(CC1)C4(C)C31CO1 (centres undefined)
- T/C (T/C endpoint: mean survival time, dose: 0.78 mg/kg/injection, schedule: Q01DX009 (ip), vehicle: saline + Tween-80 + alcohol): 108 [survivor count not shown] and 112 % of control [survivor count not shown]
- T/C (T/C endpoint: mean survival time, dose: 1.56 mg/kg/injection, schedule: Q01DX009 (ip), vehicle: saline + Tween-80 + alcohol): 120 [survivor count not shown] and 122 % of control [survivor count not shown]
- T/C (T/C endpoint: mean survival time, dose: 3.12 mg/kg/injection, schedule: Q01DX009 (ip), vehicle: saline + Tween-80 + alcohol): 122 [survivor count not shown] and 123 % of control [survivor count not shown]
- T/C (T/C endpoint: mean survival time, dose: 6.25 mg/kg/injection, schedule: Q01DX009 (ip), vehicle: saline + Tween-80 + alcohol): 125 [survivor count not shown] and 131 % of control [survivor count not shown]
- T/C (T/C endpoint: mean survival time, dose: 12.5 mg/kg/injection, schedule: Q01DX009 (ip), vehicle: saline + Tween-80 + alcohol): 118 % of control [survivor count not shown]

Structure (SMILES): CC(=O)OCC12CC(O)C(C)=CC1OC1C(O)C(OC(C)=O)C2(C)C12CO2 (centres undefined)
- T/C (T/C endpoint: mean survival time, dose: 0.31 mg/kg/injection, schedule: Q01DX009 (ip), vehicle: saline): 106 % of control [survivor count not shown]
- T/C (T/C endpoint: mean survival time, dose: 0.62 mg/kg/injection, schedule: Q01DX009 (ip), vehicle: saline): 104 % of control [survivor count not shown]
- T/C (T/C endpoint: mean survival time, dose: 0.63 mg/kg/injection, schedule: Q01DX009 (ip), vehicle: saline): 112 % of control [survivor count not shown]
- T/C (T/C endpoint: mean survival time, dose: 1.25 mg/kg/injection, schedule: Q01DX009 (ip), vehicle: saline): 108 [survivor count not shown] and 114 % of control [survivor count not shown]
- T/C (T/C endpoint: mean survival time, dose: 2.5 mg/kg/injection, schedule: Q01DX009 (ip), vehicle: saline): 109 [survivor count not shown] and 115 % of control [survivor count not shown]
- T/C (T/C endpoint: mean survival time, dose: 5.0 mg/kg/injection, schedule: Q01DX009 (ip), vehicle: saline): 111 % of control [survivor count not shown]

Structure (SMILES): CC(=O)OC[C@]12C[C@H](OC(=O)CC(C)C)C(C)=C[C@H]1OC1[C@H](O)[C@@H](OC(C)=O)[C@@]2(C)[C@@]12CO2
- T/C (T/C endpoint: mean survival time, dose: 0.17 mg/kg/injection, schedule: Q01DX009 (ip), vehicle: Klucel (hydroxypropylcellulose) (HPC)): 107 % of control [survivor count not shown]
- T/C (T/C endpoint: mean survival time, dose: 0.26 mg/kg/injection, schedule: Q01DX009 (ip), vehicle: Klucel (hydroxypropylcellulose) (HPC)): 122 % of control [survivor count not shown]
- T/C (T/C endpoint: median survival time, dose: 0.25 mg/kg/injection, schedule: Q01DX009 (ip), vehicle: Klucel (hydroxypropylcellulose) (HPC)): 134 % of control [survivor count not shown]
- T/C (T/C endpoint: median survival time, dose: 0.5 mg/kg/injection, schedule: Q01DX009 (ip), vehicle: Klucel (hydroxypropylcellulose) (HPC)): 134 % of control [survivor count not shown]

Structure (SMILES): CC(=O)OC[C@]12C[C@H](OC(=O)CC(C)C)C(C)=C[C@H]1O[C@@H]1[C@H](O)[C@@H](O)[C@@]2(C)[C@@]12CO2
- T/C [1]: 117 % of control [survivor count not shown]
- T/C [2]: 125 % of control [survivor count not shown]
- T/C [3]: 134 % of control [survivor count not shown]

Structure (SMILES): CC(O)C1/C=C/C=C/C(=O)OC2CC3OC4C5OC5(C)C(O)CC4(COC(=O)C(O)C(C)CCO1)C2(C)C31CO1 (centres undefined)
- T/C (T/C endpoint: median survival time, dose: 2.5 mg/kg/injection, schedule: Q01DX009 (ip), vehicle: saline + alcohol): 134 % of control [survivor count not shown]
- T/C (T/C endpoint: median survival time, dose: 5.0 mg/kg/injection, schedule: Q01DX009 (ip), vehicle: saline + alcohol): 139 [survivor count not shown] and 141 % of control [survivor count not shown]
- T/C (T/C endpoint: median survival time, dose: 10.0 mg/kg/injection, schedule: Q01DX009 (ip), vehicle: saline + alcohol): 147 [survivor count not shown] and 150 % of control [survivor count not shown]
- T/C (T/C endpoint: median survival time, dose: 20.0 mg/kg/injection, schedule: Q01DX009 (ip), vehicle: saline + alcohol): 168 [survivor count not shown] and 176 % of control [survivor count not shown]
- T/C (T/C endpoint: median survival time, dose: 40.0 mg/kg/injection, schedule: Q01DX009 (ip), vehicle: saline + alcohol): 141 [survivor count not shown] and 190 % of control [survivor count not shown]

Structure (SMILES): CC1=CC2OC3CC4OC(=O)/C=C/C=C/C(C(C)O)OCC(O)C(C)CC(=O)OCC2(CC1O)C4(C)C31CO1 (centres undefined)
- T/C (T/C endpoint: mean survival time, dose: 0.08 mg/kg/injection, schedule: Q01DX009 (ip), vehicle: Klucel (hydroxypropylcellulose) (HPC)): 114 % of control [survivor count not shown]
- T/C (T/C endpoint: mean survival time, dose: 0.16 mg/kg/injection, schedule: Q01DX009 (ip), vehicle: Klucel (hydroxypropylcellulose) (HPC)): 106 % of control [survivor count not shown]
- T/C (T/C endpoint: mean survival time, dose: 0.31 mg/kg/injection, schedule: Q01DX009 (ip), vehicle: Klucel (hydroxypropylcellulose) (HPC)): 117 % of control [survivor count not shown]
- T/C (T/C endpoint: mean survival time, dose: 0.62 mg/kg/injection, schedule: Q01DX009 (ip), vehicle: Klucel (hydroxypropylcellulose) (HPC)): 120 % of control [survivor count not shown]
- T/C (T/C endpoint: mean survival time, dose: 1.25 mg/kg/injection, schedule: Q01DX009 (ip), vehicle: Klucel (hydroxypropylcellulose) (HPC)): 123 % of control [survivor count not shown]

Structure (SMILES): CC(=O)OC[C@]12CCC(C)=C[C@H]1O[C@@H]1[C@H](O)[C@@H](OC(C)=O)[C@@]2(C)[C@@]12CO2
- T/C (T/C endpoint: mean survival time, dose: 3.13 mg/kg/injection, schedule: Q04DX002 (ip), vehicle: saline with Tween-80): 105 % of control [survivor count not shown]
- T/C (T/C endpoint: mean survival time, dose: 6.25 mg/kg/injection, schedule: Q04DX002 (ip), vehicle: saline with Tween-80): 101 % of control [survivor count not shown]
- T/C (T/C endpoint: mean survival time, dose: 12.5 mg/kg/injection, schedule: Q04DX002 (ip), vehicle: saline with Tween-80): 116 % of control [survivor count not shown]
